# About 7,700 (2.3%) of roughly 330,000 compounds were called active. This list was built around the results that the source calls inconclusive (neither active nor inactive); the mix of calls is not that of the screen. Calls follow the shape of the dose curve; as a rule, active = well fitted inhibition curve with a large enough effect; inconclusive = small, poorly fitted or top-dose-only effect, or effect the other way; inactive = flat fitted curve, though single readings scatter. Potencies beside an inconclusive call are fits to weak or partial responses and may not hold up.
# Assay: qHTS screen for small molecules that inhibit ELG1-dependent DNA repair in human embryonic kidney (HEK293T) cells expressing luciferase-tagged ELG1; also: nearly all actives have a fitted effect of over 55% in size
# Details: HEK293T ELG1-luciferase reporter, luminescence, 16 h, DNA damage induced by 5-fluorouridine; series mostly up to 46.1 µM
# Procedure, shortened: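 Reporter activity after DNA damage by 5-fluorouridine is monitored. Compound-treated cells incubate 16 hr at 37 °C, then ONE-Glo is added for 30 min before luminescence reading.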
# Potency is read from the fitted curve at half-maximal effect.
row,Structure (SMILES),Potency
1,CCOCCCn1c(=NC(=O)c2cccnc2)c(C(=O)OCC)cc2c(=O)n3ccccc3nc21,"inconclusive: 11.6 µM [inhibitor, partial curve]"
2,O=C(/C=C/c1ccc(N2CCCCC2)c([N+](=O)[O-])c1)c1ccc(S(=O)(=O)N2CCCC2)cc1,"inconclusive: 2.31 µM [inhibitor, partial curve, poor fit]"
3,O=C(Nc1ccc(Oc2cccnc2)cc1)c1ccccc1F,"inconclusive: 18.4 µM [activator, partial curve]"
4,O=C(OCCN1C(=O)c2cccc3c(N4CCOCC4)ccc(c23)C1=O)c1ccc(Cl)cc1Cl,"inconclusive: 23.1 µM [inhibitor, partial curve]"
5,COC(=O)c1sccc1N/N=C/c1cccc(OC)c1O,"inconclusive: 0.461 µM [activator, full curve]"
6,COc1ccc(OC)c(N2C(=O)CC(Cc3ccc(Cl)cc3)C2=O)c1 (centres undefined),"inconclusive: 20.6 µM [inhibitor, partial curve]"
7,O=C(C1CCN(S(=O)(=O)c2cccc3nsnc23)CC1)N1CCN(c2ccccc2F)CC1,"inconclusive: 13 µM [inhibitor, partial curve]"
8,Cc1ccc(C(=O)N2CCN(c3ccccc3Cl)CC2)cc1[N+](=O)[O-],"inconclusive: 23.1 µM [inhibitor, partial curve, poor fit]"
9,Cc1ccc(-c2csc(NC(=O)CSc3ncn(-c4ccccc4)n3)n2)cc1,"inconclusive: 29.1 µM [inhibitor, single point]"
10,CC(C)C(=O)Nc1ccc(C(=O)Nc2nnc(C(C)(C)C)s2)cc1,inactive
11,O=C(Nc1nc(COc2ccccc2)cs1)C12CC3CC(CC(C3)C1)C2,"inconclusive: 23.1 µM [activator, partial curve, poor fit]"
12,c1csc(-c2ccc(N3CCOCC3)nn2)c1,"inconclusive: 2.91 µM [activator, partial curve]"
13,CCN(CC(=O)NC1CCS(=O)(=O)C1)S(=O)(=O)c1cc([N+](=O)[O-])ccc1C (centres undefined),"inconclusive: 29.1 µM [activator, single point]"
14,NC(=O)c1cc([N+](=O)[O-])c(Cl)cc1NCc1cccnc1,"inconclusive: 12.6 µM [activator, single point]"
15,CCCCOc1ccc(C(=O)NCCc2ccccc2)cc1,"inconclusive: 5.8 µM [activator, partial curve]"
16,O=C(/C=C/c1ccc(O)c(O)c1)O[C@H](Cc1ccc(O)c(O)c1)C(=O)O,"inconclusive: 29.1 µM [activator, single point]"
17,CC1CCN(S(=O)(=O)c2cccc(C(=O)NC3CCCCC3)c2)CC1,inactive
18,O=C(CCN1C(=O)c2cccc3cccc(c23)C1=O)N1CCN(Cc2ccc3c(c2)OCO3)CC1,"inconclusive: 18.4 µM [inhibitor, partial curve]"
19,CCOc1ccc(C(=O)N2CCCC(c3nc(-c4ccc(C)o4)no3)C2)cc1 (centres undefined),"inconclusive: 29.1 µM [inhibitor, single point]"
20,Cc1ccc(S(=O)(=O)N(C)C)cc1NC(=O)c1cc(C(C)(C)C)nn1Cc1ccccc1,"inconclusive: 29.1 µM [inhibitor, partial curve, poor fit]"
21,COC(CNC(=O)CNC(=S)N(Cc1ccccc1)Cc1cccs1)OC,inactive
22,CC(C)(C)c1csc(NC(=O)C2=COCCO2)n1,"inconclusive: 9.2 µM [activator, partial curve]"
23,Cc1nc(N)sc1-c1csc(Nc2cccc(C(=O)O)c2)n1,inactive

row,Structure (SMILES),Potency
1,CCOC(=O)CC1=NN(c2ccccc2)C(=O)/C1=C\c1ccc(OC)cc1OC,"inconclusive: 20.6 µM [activator, partial curve]"
2,CCOC(=O)c1sc(NC(=O)CSc2nncs2)c(C(=O)OCC)c1C,"inconclusive: 18.4 µM [inhibitor, single point]"
3,O=C(Oc1ccccc1)N1CCCC1,"inconclusive: 16.4 µM [activator, single point]"
4,Cc1sc(N/N=C/c2cc([N+](=O)[O-])ccc2O)nc1-c1ccccc1,"inconclusive: 1.83 µM [inhibitor, full curve]"
5,Cc1cc(C)c(C)c(S(=O)(=O)NCCCN2CCCC2=O)c1C,inactive
6,CCOC(=O)c1ccc(Nc2sc(C(=O)c3cccc([N+](=O)[O-])c3)c(N)c2C#N)cc1,"inconclusive: 0.651 µM [inhibitor, full curve]"
7,O=C1c2cccnc2C(Nc2ccc(S(=O)(=O)N3CCCCCC3)cc2)N1Cc1ccccc1 (centres undefined),active: 8.2 µM
8,CCOCCOC(=O)c1cccc(NC(=O)OCC)c1,"inconclusive: 16.4 µM [activator, partial curve]"
9,O=C(Nc1ccc(Cl)cc1)Nc1ccc(Oc2cccnc2)nc1,"inconclusive: 18.3 µM [inhibitor, single point]"
10,O=C(CCCc1ccccc1)NCc1cn2ccsc2n1,inactive
11,COc1ccc(-c2noc(CCC(=O)N3CCN(c4cccc(F)c4)CC3)n2)cc1,"inconclusive: 20.6 µM [inhibitor, single point]"
12,O=C(Nc1ccc(F)cc1)Nc1ccc(N2CCOCC2)c2nonc12,"inconclusive: 5.17 µM [activator, partial curve]"
13,CC(C)(C)c1cc(C(=O)NNC(=O)c2ccc(Cl)cc2)no1,inactive
14,CN(C)CCNC(=O)C1(O)c2cc(Br)ccc2NC(=O)N1c1ccc(Cl)cc1 (centres undefined),inactive
15,O=C(CNS(=O)(=O)c1ccc([N+](=O)[O-])cc1)N/N=C\c1ccc(O)cc1,"inconclusive: 23.1 µM [activator, partial curve, poor fit]"
16,Cn1cnnc1SCC(=O)Nc1ccccc1Oc1ccccc1,inactive
17,CCOc1ccccc1N(C)C(=O)c1cn(C)c(=O)c2ccccc12,inactive
18,Cc1ccn2c(NC3CCCCC3)c(C(C)C)nc2c1,inactive
19,O=C(Nc1ccc2c(c1)OCO2)c1cnc2n(c1=O)CCS2,"inconclusive: 10.3 µM [activator, partial curve]"
20,COc1cc2[nH]c3c(N4CCC(C(N)=O)CC4)ncnc3c2cc1OC,inactive
21,CC(C)(C)c1ccc(C(=O)/C(C#N)=C/c2cccs2)cc1,"inconclusive: 29.1 µM [activator, single point]"
22,COc1ccc(C(=O)c2cc3cccc(OC)c3o2)cc1,"inconclusive: 13 µM [activator, partial curve]"
23,Cc1ccccc1-n1nnnc1SCC(N)=O,inactive

row,Structure (SMILES),Potency
1,C=CC[C@@H](CC(=O)N[C@@H](CO)Cc1ccccc1)C(=O)N[C@H](C)COC(=O)[C@@H](CC=C)Cc1ccc(F)cc1,inactive
2,Cc1ccc(C(=O)N2N=C(c3ccc(Br)cc3)CC2c2ccccc2O)cc1 (centres undefined),"inconclusive: 25.1 µM [inhibitor, single point]"
3,CC(C)(C)n1nnnc1C(c1ccc(Cl)cc1)N1CCCc2ccccc21 (centres undefined),inactive
4,CC(=O)N1CCN(S(=O)(=O)c2cccc(C(=O)OCc3cccc(F)c3)c2)CC1,inactive
5,CC(NCCCOc1cccc2ccccc12)c1ccccc1 (centres undefined),inactive
6,S=C(N/N=C1\CCc2ccccc21)NC1CCCCC1,"inconclusive: 5.8 µM [activator, partial curve]"
7,O=C(Nc1ccc(F)cc1F)c1cc2ccccc2oc1=O,"inconclusive: 8.91 µM [activator, partial curve]"
8,CCCCc1cn([C@@H](CCCCNC(=O)OC(C)(C)C)C(=O)N2CCN(C(=O)OC(C)(C)C)CC2)nn1,inactive
9,CCOC(=O)N1CCN(C(=O)CCCCCn2c(=S)[nH]c3cc4c(cc3c2=O)OCO4)CC1,"inconclusive: 16.4 µM [inhibitor, partial curve, poor fit]"
10,O=C(Nc1ccccc1N1CCCCC1)c1ccco1,inactive
11,COc1ccc(-c2nc(C(F)(F)F)c(OC)o2)cc1OC,inactive
12,O=S(=O)(Nc1ccc(N2CCCCC2)cc1)c1ccccc1,"inconclusive: 32.6 µM [activator, partial curve, poor fit]"
13,COc1ccc(C2N(S(=O)(=O)c3ccc(C)cc3)CCN2S(=O)(=O)c2ccc(C)cc2)cc1,inactive
14,C/C(=N\NC(=O)c1cccc(Cl)c1)c1cccc(NC(=O)c2ccco2)c1,"inconclusive: 29.1 µM [inhibitor, single point]"
15,COc1ccccc1CCn1c(N)cc(=O)[nH]c1=O,inactive
16,COc1ccc(CNC(=O)CSc2nnc3c(n2)[nH]c2ccc(OC)cc23)cc1,inactive
17,Cc1cc(C(=O)Nc2ccc(S(=O)(=O)N3CCOCC3)cc2)c(C)o1,"inconclusive: 32.6 µM [inhibitor, single point]"
18,Cc1cc(SCC(=O)N/N=C/c2ccc(O)cc2O)c(C)cc1Br,"inconclusive: 5.8 µM [inhibitor, single point]"
19,COc1cc(/C=N/NC(=S)NC2CC3C=CC2C3)cc(OC)c1OC (centres undefined),active: 18.3 µM
20,COc1ccc(OC)c(CCNC(=O)CCc2nnc3ccc(N4CCCC4)nn23)c1,"inconclusive: 11.6 µM [inhibitor, partial curve, poor fit]"
21,O=C(c1ccco1)N1CCN(C(=O)c2cc(-c3ccccn3)nc3ccccc23)CC1,"inconclusive: 29.1 µM [inhibitor, single point]"
22,C[C@H](CO)N1C[C@H](C)[C@@H](CN(C)C(=O)Nc2ccc(C(F)(F)F)cc2)Oc2c(NC(=O)Nc3ccccc3)cccc2C1=O,active: 0.517 µM
23,COc1cccc(CNC(=O)COC(=O)CN(C)S(=O)(=O)c2ccc(NC(C)=O)cc2)c1,"inconclusive: 16.4 µM [activator, partial curve, poor fit]"

# Nothing new here: an excerpt of the list.
row,Structure (SMILES),Potency
7,O=C(Nc1ccc(F)cc1F)c1cc2ccccc2oc1=O,"inconclusive: 8.91 µM [activator, partial curve]"
8,CCCCc1cn([C@@H](CCCCNC(=O)OC(C)(C)C)C(=O)N2CCN(C(=O)OC(C)(C)C)CC2)nn1,inactive
9,CCOC(=O)N1CCN(C(=O)CCCCCn2c(=S)[nH]c3cc4c(cc3c2=O)OCO4)CC1,"inconclusive: 16.4 µM [inhibitor, partial curve, poor fit]"
